Measured values reported in the supplement of paper PMC7666118.
The list shows a part of the results.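 Rule for the calls: active = dose-dependent thermal stabilisation significant by F-test of dose-response against flat model at 10% FDR; inactive = not significant.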

Protein sequences, listed by entry. Tags and fused reporters are not part of them. Lines headed by an entry give the natural chain unless they say otherwise; changes in a name come on top.
UniProt Q8NDV3: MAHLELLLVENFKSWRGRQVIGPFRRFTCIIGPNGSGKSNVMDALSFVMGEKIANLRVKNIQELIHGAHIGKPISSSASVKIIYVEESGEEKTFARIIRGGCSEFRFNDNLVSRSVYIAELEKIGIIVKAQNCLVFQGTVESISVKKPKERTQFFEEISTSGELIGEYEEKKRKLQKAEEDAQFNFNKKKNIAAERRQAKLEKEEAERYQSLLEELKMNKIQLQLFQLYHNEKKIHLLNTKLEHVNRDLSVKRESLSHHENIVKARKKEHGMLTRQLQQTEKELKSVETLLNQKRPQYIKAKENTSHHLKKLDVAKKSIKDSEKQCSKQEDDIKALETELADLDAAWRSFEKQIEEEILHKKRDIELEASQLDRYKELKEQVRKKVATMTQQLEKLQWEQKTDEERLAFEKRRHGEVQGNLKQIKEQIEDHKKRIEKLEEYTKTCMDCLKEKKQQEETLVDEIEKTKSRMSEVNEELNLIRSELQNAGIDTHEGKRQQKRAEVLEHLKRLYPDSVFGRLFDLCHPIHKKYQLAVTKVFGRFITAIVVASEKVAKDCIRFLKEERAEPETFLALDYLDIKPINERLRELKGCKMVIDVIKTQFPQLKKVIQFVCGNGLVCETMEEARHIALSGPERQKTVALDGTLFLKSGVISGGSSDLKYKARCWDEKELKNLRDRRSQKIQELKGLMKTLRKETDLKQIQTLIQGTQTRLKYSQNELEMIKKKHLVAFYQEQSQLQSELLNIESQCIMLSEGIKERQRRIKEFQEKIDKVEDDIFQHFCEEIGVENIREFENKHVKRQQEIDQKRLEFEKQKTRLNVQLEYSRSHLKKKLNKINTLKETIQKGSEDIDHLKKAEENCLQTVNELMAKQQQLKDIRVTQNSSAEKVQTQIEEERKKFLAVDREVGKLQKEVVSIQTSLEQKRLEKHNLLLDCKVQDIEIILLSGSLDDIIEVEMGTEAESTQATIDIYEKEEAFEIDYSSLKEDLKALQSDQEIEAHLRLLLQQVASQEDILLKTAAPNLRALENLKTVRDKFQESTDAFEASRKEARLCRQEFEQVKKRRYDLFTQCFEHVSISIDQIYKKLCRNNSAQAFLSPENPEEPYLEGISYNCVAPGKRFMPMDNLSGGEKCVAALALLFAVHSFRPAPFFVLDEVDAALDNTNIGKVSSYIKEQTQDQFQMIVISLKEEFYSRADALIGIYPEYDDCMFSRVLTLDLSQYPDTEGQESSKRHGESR
UniProt Q9BWG4: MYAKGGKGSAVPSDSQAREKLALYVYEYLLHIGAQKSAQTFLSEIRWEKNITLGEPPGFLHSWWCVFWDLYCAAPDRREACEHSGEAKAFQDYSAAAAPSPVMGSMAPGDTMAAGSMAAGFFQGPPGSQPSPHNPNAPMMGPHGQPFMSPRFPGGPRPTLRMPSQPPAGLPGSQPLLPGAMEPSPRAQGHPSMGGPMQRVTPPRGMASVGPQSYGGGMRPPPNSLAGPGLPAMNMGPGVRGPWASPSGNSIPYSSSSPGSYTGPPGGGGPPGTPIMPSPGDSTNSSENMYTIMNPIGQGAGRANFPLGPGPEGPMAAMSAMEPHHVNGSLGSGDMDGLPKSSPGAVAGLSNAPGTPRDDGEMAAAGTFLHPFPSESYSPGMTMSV
UniProt O75940: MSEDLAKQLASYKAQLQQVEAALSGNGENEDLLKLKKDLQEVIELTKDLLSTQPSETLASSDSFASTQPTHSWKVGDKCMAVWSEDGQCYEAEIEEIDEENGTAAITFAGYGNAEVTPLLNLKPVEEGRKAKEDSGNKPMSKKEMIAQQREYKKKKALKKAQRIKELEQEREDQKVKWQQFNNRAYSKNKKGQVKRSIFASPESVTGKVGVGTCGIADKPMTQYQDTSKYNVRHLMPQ
UniProt Q96CW6: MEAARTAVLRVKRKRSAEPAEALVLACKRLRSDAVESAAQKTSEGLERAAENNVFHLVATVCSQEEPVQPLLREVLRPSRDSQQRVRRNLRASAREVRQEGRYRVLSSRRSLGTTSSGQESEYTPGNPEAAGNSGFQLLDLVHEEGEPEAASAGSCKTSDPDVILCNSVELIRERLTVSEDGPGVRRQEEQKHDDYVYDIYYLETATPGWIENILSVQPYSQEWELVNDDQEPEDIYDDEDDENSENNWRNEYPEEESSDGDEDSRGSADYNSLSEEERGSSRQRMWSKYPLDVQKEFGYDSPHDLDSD
UniProt P04179: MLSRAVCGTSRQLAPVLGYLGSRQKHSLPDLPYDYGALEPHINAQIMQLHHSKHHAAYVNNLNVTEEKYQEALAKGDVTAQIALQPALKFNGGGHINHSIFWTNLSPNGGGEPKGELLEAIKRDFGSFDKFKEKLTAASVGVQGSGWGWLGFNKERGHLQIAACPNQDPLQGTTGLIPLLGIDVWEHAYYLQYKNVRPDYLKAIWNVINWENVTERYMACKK
UniProt Q9Y6R1: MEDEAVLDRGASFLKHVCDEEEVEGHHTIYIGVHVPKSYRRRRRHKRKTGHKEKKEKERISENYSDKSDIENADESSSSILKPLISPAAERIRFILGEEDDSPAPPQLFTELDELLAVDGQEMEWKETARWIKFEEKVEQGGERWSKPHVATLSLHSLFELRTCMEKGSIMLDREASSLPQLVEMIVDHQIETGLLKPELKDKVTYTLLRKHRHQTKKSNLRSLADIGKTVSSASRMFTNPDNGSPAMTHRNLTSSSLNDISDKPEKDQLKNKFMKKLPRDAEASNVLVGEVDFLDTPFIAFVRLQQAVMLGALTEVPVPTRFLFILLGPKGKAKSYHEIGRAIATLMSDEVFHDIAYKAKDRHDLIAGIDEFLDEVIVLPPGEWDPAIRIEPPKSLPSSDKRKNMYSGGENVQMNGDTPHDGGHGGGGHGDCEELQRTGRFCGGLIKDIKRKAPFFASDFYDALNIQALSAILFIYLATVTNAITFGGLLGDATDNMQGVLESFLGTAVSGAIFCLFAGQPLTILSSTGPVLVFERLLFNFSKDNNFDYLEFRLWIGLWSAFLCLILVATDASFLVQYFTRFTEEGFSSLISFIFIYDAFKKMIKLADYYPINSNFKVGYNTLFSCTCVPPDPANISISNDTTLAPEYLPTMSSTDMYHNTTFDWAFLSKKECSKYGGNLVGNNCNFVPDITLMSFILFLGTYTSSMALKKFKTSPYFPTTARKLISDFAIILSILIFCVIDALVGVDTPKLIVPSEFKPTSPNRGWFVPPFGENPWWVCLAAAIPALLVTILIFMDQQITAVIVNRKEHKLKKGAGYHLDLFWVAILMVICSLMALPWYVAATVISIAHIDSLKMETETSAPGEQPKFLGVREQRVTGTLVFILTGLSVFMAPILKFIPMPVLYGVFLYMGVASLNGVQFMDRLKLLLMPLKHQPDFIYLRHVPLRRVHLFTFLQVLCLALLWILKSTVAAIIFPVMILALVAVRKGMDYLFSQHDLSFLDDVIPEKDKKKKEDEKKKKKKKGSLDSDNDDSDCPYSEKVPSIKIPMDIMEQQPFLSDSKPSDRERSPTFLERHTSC
UniProt Q9UQ13: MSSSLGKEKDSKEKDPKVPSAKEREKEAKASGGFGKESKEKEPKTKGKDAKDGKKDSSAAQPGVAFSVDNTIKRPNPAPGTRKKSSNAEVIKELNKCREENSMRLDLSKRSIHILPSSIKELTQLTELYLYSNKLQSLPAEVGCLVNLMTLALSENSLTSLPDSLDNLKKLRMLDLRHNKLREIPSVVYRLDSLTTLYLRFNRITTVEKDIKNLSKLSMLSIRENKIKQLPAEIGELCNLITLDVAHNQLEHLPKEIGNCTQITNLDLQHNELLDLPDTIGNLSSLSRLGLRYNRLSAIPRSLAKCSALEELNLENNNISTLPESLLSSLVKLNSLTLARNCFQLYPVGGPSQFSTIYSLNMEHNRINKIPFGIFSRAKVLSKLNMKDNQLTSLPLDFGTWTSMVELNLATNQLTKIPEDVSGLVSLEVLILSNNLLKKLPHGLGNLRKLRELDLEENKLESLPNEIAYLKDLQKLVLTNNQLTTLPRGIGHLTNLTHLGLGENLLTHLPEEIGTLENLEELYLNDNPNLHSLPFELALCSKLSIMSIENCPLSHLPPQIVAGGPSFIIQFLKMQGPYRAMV
UniProt O00161: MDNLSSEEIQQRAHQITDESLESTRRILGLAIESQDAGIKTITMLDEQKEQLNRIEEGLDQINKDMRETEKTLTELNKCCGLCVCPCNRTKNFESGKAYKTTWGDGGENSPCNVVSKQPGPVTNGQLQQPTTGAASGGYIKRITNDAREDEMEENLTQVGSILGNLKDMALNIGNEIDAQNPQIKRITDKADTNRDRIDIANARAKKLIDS
UniProt Q9HBM1: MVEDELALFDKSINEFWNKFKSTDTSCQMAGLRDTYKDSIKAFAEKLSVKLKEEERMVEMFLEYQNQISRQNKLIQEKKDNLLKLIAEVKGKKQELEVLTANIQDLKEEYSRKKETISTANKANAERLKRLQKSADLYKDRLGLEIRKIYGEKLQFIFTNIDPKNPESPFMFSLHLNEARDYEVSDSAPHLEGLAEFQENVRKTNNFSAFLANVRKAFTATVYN
UniProt Q8TBC3: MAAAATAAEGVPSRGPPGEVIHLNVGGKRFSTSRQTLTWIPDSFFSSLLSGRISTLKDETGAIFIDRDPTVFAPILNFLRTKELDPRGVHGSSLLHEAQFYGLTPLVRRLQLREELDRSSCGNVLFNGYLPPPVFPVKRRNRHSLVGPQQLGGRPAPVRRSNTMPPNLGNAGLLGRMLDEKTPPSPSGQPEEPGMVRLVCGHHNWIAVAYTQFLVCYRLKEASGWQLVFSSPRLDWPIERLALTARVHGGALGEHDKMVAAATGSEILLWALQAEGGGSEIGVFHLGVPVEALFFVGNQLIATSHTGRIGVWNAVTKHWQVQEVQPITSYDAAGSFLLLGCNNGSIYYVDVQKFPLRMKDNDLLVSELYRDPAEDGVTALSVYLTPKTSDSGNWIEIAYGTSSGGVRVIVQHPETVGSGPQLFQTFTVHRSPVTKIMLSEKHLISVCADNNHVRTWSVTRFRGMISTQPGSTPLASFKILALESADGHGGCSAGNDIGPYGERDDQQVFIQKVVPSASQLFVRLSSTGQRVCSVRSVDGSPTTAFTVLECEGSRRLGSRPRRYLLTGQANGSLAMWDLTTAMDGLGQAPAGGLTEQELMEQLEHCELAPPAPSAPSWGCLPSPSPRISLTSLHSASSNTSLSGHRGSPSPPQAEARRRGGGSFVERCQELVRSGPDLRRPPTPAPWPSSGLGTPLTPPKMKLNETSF
UniProt Q9H7L9: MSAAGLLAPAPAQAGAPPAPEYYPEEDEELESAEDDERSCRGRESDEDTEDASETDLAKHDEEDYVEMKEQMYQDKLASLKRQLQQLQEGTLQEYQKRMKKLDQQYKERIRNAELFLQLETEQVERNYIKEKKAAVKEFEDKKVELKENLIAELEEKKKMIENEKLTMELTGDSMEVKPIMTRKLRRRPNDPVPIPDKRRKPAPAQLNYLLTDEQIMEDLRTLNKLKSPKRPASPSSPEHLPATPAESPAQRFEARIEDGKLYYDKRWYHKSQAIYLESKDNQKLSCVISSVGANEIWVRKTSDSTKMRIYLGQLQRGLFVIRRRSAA
UniProt Q07955, whole entry: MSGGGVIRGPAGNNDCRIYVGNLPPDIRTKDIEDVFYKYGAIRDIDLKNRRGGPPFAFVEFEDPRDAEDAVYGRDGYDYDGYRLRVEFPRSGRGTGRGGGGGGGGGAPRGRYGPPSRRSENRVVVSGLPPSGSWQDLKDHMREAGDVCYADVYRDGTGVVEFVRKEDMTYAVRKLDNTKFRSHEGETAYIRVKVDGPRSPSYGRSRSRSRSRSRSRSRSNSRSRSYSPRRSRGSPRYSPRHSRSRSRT
UniProt P19623: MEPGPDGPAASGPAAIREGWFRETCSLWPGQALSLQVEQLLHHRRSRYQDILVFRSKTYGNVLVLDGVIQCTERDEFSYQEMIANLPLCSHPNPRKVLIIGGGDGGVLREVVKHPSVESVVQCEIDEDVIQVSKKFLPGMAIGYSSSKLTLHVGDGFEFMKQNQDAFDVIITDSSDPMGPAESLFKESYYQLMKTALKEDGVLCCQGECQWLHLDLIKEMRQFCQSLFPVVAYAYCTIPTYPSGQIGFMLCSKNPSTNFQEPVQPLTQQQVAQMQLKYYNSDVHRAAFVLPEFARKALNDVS
UniProt Q08170: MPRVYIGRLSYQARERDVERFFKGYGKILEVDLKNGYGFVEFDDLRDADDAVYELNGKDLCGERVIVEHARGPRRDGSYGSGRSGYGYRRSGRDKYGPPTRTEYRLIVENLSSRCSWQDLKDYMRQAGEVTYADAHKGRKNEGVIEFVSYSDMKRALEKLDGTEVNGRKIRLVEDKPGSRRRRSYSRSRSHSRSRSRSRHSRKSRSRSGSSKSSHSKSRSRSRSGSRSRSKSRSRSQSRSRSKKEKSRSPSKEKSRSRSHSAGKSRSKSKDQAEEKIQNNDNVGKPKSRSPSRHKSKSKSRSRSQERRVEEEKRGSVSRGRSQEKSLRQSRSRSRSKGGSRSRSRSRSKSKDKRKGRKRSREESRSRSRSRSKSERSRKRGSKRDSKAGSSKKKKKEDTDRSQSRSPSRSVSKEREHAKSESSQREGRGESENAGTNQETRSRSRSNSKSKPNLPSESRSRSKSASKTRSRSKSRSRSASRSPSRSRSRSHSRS

compound: Nc1nc2c(ncn2[C@@H]2O[C@H](COP(=O)(O)OP(=O)(O)OP(=O)(O)O)[C@@H](O)[C@H]2O)c(=O)[nH]1; assay: dose-dependent thermal stabilisation call (2D-TPP, DLPTP, 10% FDR) (binary (1 = stabilised)); higher = stabilised by the compound; conditions: system: Jurkat gel-filtered lysate; concentration range 1-500 µM
Description: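 2D thermal proteome profiling in gel-filtered Jurkat E6.1 lysate (2 mg/ml) treated with NaGTP (0, 1, 10, 100, 500 uM) for 10 min at room temperature, then heated 3 min at one of 12 temperatures (42-63.9 C). Soluble protein was quantified by TMT10 MS. The value is the DLPTP call of the paper: dose-dependent thermal stabilisation over all temperatures at 10% FDR (F-test of a dose-response against a flat model); one experiment, one call per tested protein.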

Row | Target | dose-dependent thermal stabilisation call
1 | SMS (UniProt P52788) | inactive: 0
2 | SMC1B (UniProt Q8NDV3) | inactive: 0
3 | SSBP4 (UniProt Q9BWG4) | inactive: 0
4 | SMNDC1 (UniProt O75940) | inactive: 0
5 | STX17 (UniProt P56962) | inactive: 0
6 | SLC7A6OS (UniProt Q96CW6) | inactive: 0
7 | SOD2 (UniProt P04179) | inactive: 0
8 | SRPK2 (UniProt P78362) | inactive: 0
9 | SYNE2 (UniProt Q8WXH0) | inactive: 0
10 | SLC4A4 (UniProt Q9Y6R1) | inactive: 0
11 | SLK (UniProt Q9H2G2) | inactive: 0
12 | SSU72 (UniProt Q9NP77) | inactive: 0
13 | SKA3 (UniProt Q8IX90) | inactive: 0
14 | STK3 (UniProt Q13188) | inactive: 0
15 | SMU1 (UniProt Q2TAY7) | inactive: 0
16 | SUGP2 (UniProt Q8IX01) | inactive: 0
17 | SHOC2 (UniProt Q9UQ13) | inactive: 0
18 | STK39 (UniProt Q9UEW8) | active: 1
19 | SUB1 (UniProt P53999) | inactive: 0
20 | SNAP23 (UniProt O00161) | inactive: 0

Row | Target | dose-dependent thermal stabilisation call
21 | SNX9 (UniProt Q9Y5X1) | inactive: 0
22 | SPC25 (UniProt Q9HBM1) | inactive: 0
23 | SMCR8 (UniProt Q8TEV9) | inactive: 0
24 | SUPT5H (UniProt O00267) | inactive: 0
25 | SHKBP1 (UniProt Q8TBC3) | active: 1
26 | SUDS3 (UniProt Q9H7L9) | inactive: 0
27 | SNX27 (UniProt Q96L92) | active: 1
28 | SSH2 (UniProt Q76I76) | inactive: 0
29 | SRSF1 (UniProt Q07955) | active: 1
30 | SNRPB (UniProt P14678) | inactive: 0
31 | SNRPG (UniProt P62308) | inactive: 0
32 | SURF2 (UniProt Q15527) | active: 1
33 | SRM (UniProt P19623) | active: 1
34 | STMN3 (UniProt Q9NZ72) | inactive: 0
35 | SRSF11 (UniProt Q05519) | inactive: 0
36 | STK10 (UniProt O94804) | inactive: 0
37 | SHMT1 (UniProt P34896) | inactive: 0
38 | SRGAP2 (UniProt O75044) | inactive: 0
39 | SRSF4 (UniProt Q08170) | active: 1
40 | SNX2 (UniProt O60749) | inactive: 0

Quoted from the listing (7 entries):
Row | Target | dose-dependent thermal stabilisation call
25 | SHKBP1 (UniProt Q8TBC3) | active: 1
26 | SUDS3 (UniProt Q9H7L9) | inactive: 0
27 | SNX27 (UniProt Q96L92) | active: 1
28 | SSH2 (UniProt Q76I76) | inactive: 0
29 | SRSF1 (UniProt Q07955) | active: 1
30 | SNRPB (UniProt P14678) | inactive: 0
31 | SNRPG (UniProt P62308) | inactive: 0
